According to PMC12041529:
These are yes or no findings as the source states them, for the method shown. Binding seen in cells or lysates may run through a third protein. Some results given as binding are weak or reduced against the parent protein; the word gives no strength. For some assays here: Tags and fused reporters may be left off the sequences shown.

The chains behind the UniProt entries cited, without tags or fusion partners.
UniProt P56962: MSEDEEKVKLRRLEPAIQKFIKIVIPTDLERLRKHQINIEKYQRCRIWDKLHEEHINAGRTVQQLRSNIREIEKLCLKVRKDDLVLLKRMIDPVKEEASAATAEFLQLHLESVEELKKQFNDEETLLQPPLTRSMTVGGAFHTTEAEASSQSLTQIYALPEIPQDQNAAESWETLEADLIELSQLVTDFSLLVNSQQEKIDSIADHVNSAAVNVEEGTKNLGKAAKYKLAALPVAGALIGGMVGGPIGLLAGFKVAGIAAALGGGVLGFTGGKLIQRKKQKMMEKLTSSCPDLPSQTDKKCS

B1: Flag-GPNMB (glycoprotein nonmetastatic melanoma protein B) (protein, UniProt Q14956 23-572)
chain: KRFHDVLGNERPSAYMREHNQLNGWSSDENDWNEKLYPVWKRGDMRWKNSWKGGRVQAVLTSDSPALVGSNITFAVNLIFPRCQKEDANGNIVYEKNCRNEAGLSADPYVYNWTAWSEDSDGENGTGQSHHNVFPDGKPFPHHPGWRRWNFIYVFHTLGQYFQKLGRCSVRVSVNTANVTLGPQLMEVTVYRRHGRAYVPIAQVKDVYVVTDQIPVFVTMFQKNDRNSSDETFLKDLPIMFDVLIHDPSHFLNYSTINYKWSFGDNTGLFVSTNHTVNHTYVLNGTFSLNLTVKAAAPGPCPPPPPPPRPSKPTPSLATTLKSYDSNTPGPAGDNPLELSRIPDENCQINRYGHFQATITIVEGILEVNIIQMTDVLMPVPWPESSLIDFVVTCQGSIPTEVCTIISDPTCEITQNTVCSPVDVDEMCLLTVRRTFNGSGTYCVNLTLGDDTSLALTSTLISVPDRDPASPLRMANSALISVGCLAIFVTVISLLVYKKHKEYNPIENSPGNVVRSKGLSVFLNRAKAVFFPGNQEKDPLLKNQEFKGVS
B2: GPNMB (glycoprotein nonmetastatic melanoma protein B), endogenous in THP-1 cells (protein, UniProt Q14956 23-572)
chain: B1 chain

What was measured:
GFP-STX17 (syntaxin 17) = GFP-STX17 (syntaxin 17) (UniProt P56962); assay: co-IP; HEK293T cells co-transfected for 24 h with Flag-GPNMB and one tagged SNARE protein (or GFP-STX17 truncations); lysis in IP buffer with 1% NP-40, 50 mM Tris-HCl pH 7.4, 50 mM EDTA, 150 mM NaCl; protein A/G magnetic beads, 4 °C
[1] = molecular target: STX17 (syntaxin 17), endogenous in THP-1 cells (human (endogenous in THP-1)) (UniProt P56962); assay: co-IP

Binder | binding (GFP-STX17 (syntaxin 17)) | binding [1]
B1 | binds | –
B2 | – | binds
